Reference: PubChem BioAssay AID686943 (Drosophila RNAi Screening Center, 2013)

- Screen: 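Search across the genome for regulators of signalling from receptor tyrosine kinase to ERK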 (primary screen)
- System: Drosophila S2R+ haemocyte-like cells expressing YFP-tagged ERK (Rolled)
- Reagent: long dsRNA against Drosophila genes
- Treatment: insulin stimulation versus unstimulated cells; dose and duration not given
- Measured: 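Antibody staining for doubly phosphorylated ERK divided by ERK-YFP signal, as plate z-scores, in insulin-treated and untreated cells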
- Direction: replicate 1, z-score of dpERK with insulin: higher = more active ERK per ERK-YFP after insulin
In all, the deposit lists about 23,000 reagents; this is an unselected part of those with a known target gene and a result. 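Extra replicates exist only for a retested subset of genes; insulin dose and duration not given; both raised and lowered dpERK matter.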 Not all columns of the deposit are shown. Not stated in the record: the amount of reagent, the time to read-out.

ktub (king tubby) [DRSC04551] — replicate 1, z-score of dpERK with insulin: -0.4
ball (ballchen) [DRSC14145] — replicate 1, z-score of dpERK with insulin: -1.22
boca [DRSC06408] — replicate 1, z-score of dpERK with insulin: -0.58
CG8079 [DRSC07070] — replicate 1, z-score of dpERK with insulin: -0.01
CG8079 [DRSC07071] — replicate 1, z-score of dpERK with insulin: 0.04
CG5013 [DRSC15695] — replicate 1, z-score of dpERK with insulin: -0.01
rnh1 (ribonuclease H1) [DRSC07673] — replicate 1, z-score of dpERK with insulin: -0.68
dysf (dysfusion) [DRSC14529] — replicate 1, z-score of dpERK with insulin: 0.26
dysf (dysfusion) [DRSC14895] — replicate 1, z-score of dpERK with insulin: -2.71
dysf (dysfusion) [DRSC14896] — replicate 1, z-score of dpERK with insulin: 0.08
dysf (dysfusion) [DRSC14897] — replicate 1, z-score of dpERK with insulin: -0.77
PolE1 (DNA polymerase epsilon subunit 1) [DRSC16112] — replicate 1, z-score of dpERK with insulin: 0.3
CG10337 [DRSC02038] — replicate 1, z-score of dpERK with insulin: -0.01

Laid out differently: results already given.
| Gene | DRSC id | replicate 1, z-score of dpERK with insulin |
| --- | --- | --- |
| CG8079 | DRSC07071 | 0.04 |
| CG5013 | DRSC15695 | -0.01 |
| rnh1 (ribonuclease H1) | DRSC07673 | -0.68 |

The listing continues.
Srp54 (Splicing regulatory protein 54) [DRSC03442] — replicate 1, z-score of dpERK with insulin: -1.9
CG11693 [DRSC14353] — replicate 1, z-score of dpERK with insulin: 0.09
Sou (Souji) [DRSC04356] — replicate 1, z-score of dpERK with insulin: -1.11
CG15561 [DRSC15100] — replicate 1, z-score of dpERK with insulin: 1.43
CG34256 [DRSC09582] — replicate 1, z-score of dpERK with insulin: 0.09
CG32625 [DRSC18994] — replicate 1, z-score of dpERK with insulin: 0.25
CG31223 [DRSC15115] — replicate 1, z-score of dpERK with insulin: 0.33
CG11788 [DRSC06084] — replicate 1, z-score of dpERK with insulin: 0.22
